Structures are written as SMILES.

The data set can be described thus: Preparation of thin film and evaluation (polarization microscope, scanning probe microscope).

On to `CCCCCC(=O)OC1CCC(OC(=O)CCCCC)c2cc(N(c3ccc(-c4ccc(N(c5ccc6c(c5)C(OC(=O)CCCCC)CCC6OC(=O)CCCCC)c5ccc6ccccc6c5)cc4)cc3)c3ccc4ccccc4c3)ccc21` (centres unmarked) [HTL17], for which the “thin film observation after annealing” value (annealing at 180° C. for 60 minutes under argon, polarization microscope) is “crystallization was not observed”. Besides, for the setting “film from 1.0% by mass chloroform solution on silicon substrate, before annealing”, the thin film observation result is “smooth and continuous amorphous film was formed”.

The values above are taken from patent US9293713B2, “Arylamine compound” (RICOH COMPANY, LTD., priority 2012, dated 2016).
